Results: publication PMC5312288
These are yes or no findings as the source states them, for the method shown. Binding seen in cells or lysates may run through a third protein. Some binding calls cover weakened binding; strength is not graded here.

The chains behind the UniProt entries cited, without tags or fusion partners.
UniProt P49327: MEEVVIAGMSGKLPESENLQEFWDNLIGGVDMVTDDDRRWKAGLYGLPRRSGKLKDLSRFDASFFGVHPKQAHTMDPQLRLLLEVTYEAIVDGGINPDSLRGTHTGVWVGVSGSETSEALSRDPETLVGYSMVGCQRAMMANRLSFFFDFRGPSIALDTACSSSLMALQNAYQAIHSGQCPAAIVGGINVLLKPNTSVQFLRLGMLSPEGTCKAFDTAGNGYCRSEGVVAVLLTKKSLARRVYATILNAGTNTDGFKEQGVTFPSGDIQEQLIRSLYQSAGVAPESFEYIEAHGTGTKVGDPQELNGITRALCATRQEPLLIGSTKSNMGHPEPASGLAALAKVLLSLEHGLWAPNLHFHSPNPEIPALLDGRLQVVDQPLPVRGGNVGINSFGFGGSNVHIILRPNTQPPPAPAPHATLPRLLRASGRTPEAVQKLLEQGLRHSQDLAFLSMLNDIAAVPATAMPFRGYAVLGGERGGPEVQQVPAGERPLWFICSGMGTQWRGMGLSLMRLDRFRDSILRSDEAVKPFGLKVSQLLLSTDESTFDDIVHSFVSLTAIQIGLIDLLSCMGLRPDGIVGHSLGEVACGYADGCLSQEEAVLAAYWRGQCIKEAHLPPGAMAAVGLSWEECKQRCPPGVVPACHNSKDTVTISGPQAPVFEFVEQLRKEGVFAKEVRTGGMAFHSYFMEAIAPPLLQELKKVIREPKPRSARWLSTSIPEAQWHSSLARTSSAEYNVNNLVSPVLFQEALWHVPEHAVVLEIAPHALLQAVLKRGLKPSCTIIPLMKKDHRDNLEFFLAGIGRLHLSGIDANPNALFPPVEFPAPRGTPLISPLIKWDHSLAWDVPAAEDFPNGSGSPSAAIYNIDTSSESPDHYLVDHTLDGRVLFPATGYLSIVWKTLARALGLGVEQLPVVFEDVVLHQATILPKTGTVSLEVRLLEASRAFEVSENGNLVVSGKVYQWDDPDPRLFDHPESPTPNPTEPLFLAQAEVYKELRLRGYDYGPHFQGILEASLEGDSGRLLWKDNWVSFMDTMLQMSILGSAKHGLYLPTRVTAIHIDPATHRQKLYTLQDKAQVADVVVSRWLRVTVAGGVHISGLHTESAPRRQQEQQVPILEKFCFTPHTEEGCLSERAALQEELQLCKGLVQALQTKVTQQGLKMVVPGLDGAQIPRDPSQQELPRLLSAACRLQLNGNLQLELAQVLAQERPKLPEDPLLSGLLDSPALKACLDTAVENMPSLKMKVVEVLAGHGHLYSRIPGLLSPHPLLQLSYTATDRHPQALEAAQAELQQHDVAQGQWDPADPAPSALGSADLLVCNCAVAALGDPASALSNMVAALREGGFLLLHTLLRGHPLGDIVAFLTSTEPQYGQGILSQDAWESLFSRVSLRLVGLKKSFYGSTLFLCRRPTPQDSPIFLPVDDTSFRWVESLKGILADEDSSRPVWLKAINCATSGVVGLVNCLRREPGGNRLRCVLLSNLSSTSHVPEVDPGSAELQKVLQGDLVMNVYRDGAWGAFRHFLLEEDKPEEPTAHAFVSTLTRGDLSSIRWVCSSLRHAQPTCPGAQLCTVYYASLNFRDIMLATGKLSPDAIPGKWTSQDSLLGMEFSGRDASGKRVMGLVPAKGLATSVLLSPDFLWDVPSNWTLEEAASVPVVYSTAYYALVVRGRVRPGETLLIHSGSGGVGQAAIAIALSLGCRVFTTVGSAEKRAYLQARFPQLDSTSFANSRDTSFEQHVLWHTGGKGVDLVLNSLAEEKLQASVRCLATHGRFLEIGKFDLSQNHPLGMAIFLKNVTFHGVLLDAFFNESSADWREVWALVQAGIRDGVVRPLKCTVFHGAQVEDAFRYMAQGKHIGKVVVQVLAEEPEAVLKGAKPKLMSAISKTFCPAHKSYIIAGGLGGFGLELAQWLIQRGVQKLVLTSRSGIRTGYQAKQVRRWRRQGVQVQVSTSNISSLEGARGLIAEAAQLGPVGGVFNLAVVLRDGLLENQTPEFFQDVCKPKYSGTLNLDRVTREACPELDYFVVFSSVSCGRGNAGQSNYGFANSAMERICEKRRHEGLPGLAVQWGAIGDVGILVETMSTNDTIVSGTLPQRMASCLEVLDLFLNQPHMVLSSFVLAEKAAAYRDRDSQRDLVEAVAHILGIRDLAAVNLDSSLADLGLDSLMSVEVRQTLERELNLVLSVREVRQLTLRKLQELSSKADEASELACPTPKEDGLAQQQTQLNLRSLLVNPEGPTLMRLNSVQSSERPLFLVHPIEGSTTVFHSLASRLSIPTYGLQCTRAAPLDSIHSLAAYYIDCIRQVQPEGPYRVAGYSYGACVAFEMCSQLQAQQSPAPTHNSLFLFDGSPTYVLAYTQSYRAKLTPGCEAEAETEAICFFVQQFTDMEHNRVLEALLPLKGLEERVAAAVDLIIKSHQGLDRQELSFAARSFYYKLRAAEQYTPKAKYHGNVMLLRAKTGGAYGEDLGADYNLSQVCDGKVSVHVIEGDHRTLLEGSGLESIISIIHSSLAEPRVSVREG

Biological target: Fatty acid synthase (human (endogenous in HMEC, SUM149PT, SUM1315MO2)) (UniProt P49327)
Experiment: co-IP; reverse: lysates of SUM149PT and SUM1315MO2 cells immunoprecipitated with anti-FASN antibody, immunoblotted for OPG and FASN

- binding: binds
B1: Osteoprotegerin (protein, UniProt O00300 22-401)
chain: ETFPPKYLHYDEETSHQLLCDKCPPGTYLKQHCTAKWKTVCAPCPDHYYTDSWHTSDECLYCSPVCKELQYVKQECNRTHNRVCECKEGRYLEIEFCLKHRSCPPGFGVVQAGTPERNTVCKRCPDGFFSNETSSKAPCRKHTNCSVFGLLLTQKGNATHDNICSGNSESTQKCGIDVTLCEEAFFRFAVPTKFTPNWLSVLVDNLPGTKVNAESVERIKRQHSSQEQTFQLLKLWKHQNKDQDIVKKIIQDIDLCENSVQRHIGHANLTFEQLRSLMESLPGKKVGAEDIEKTIKACKPSDQILKLLSLWRIKNGDQDTLKGLMHALKHSKTYHFPKTVTQSLKKTIRFLHSFTMYKLYQKLFLEMIGNQVQSVKISCL
